We go through one sequence from article PMC5794780, “ATP-dependent conformational change in ABC-ATPase RecF serves as a switch in DNA repair” (Scientific Reports, 2018).

Construct, isoform or probe ends are uncertain for at least one entry. Where a protein sequence is shown, tags need not be part of it.

Series [1] deals with T1, TTERecF monomer (ATP-free) (Thermoanaerobacter tengcongensis MB4) (UniProt Q8RDL3).
T1 sequence (looked up, limits assumed): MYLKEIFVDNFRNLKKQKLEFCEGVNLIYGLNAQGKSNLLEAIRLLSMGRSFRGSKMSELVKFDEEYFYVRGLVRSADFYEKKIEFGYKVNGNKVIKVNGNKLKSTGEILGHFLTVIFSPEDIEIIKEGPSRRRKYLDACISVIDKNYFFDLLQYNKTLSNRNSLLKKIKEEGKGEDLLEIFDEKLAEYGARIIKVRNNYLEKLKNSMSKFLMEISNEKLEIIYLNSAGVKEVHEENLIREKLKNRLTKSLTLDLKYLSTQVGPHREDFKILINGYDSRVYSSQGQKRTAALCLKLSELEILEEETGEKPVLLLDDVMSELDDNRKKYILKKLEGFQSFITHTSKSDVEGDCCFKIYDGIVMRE
Briefly: BLI. The following applies: no ATP, kd 8.46E-02 s-1; BLI: 20 mM Tris-HCl pH 7.0, 200 mM NaCl, 0.05% Tween 20, 25 C; biotinylated DNA on streptavidin sensors; no Mg2+ stated; recombinant protein; protein details: N-terminal His6; label: 5' biotin (strand 1).

In series [2] the target is T2, TTERecF-ATP dimer (Thermoanaerobacter tengcongensis MB4) (UniProt Q8RDL3).
T2 sequence (looked up, limits assumed): T1 sequence (looked up, limits assumed)
The series can be described thus: BLI. The following applies: ATP (1 mM in preincubation), kd 7.12E-04 s-1, text says almost 1000x stronger than monomer, values give about 260x; BLI: 20 mM Tris-HCl pH 7.0, 200 mM NaCl, 0.05% Tween 20, 25 C; biotinylated DNA on streptavidin sensors; no Mg2+ stated; recombinant protein; protein details: N-terminal His6; label: 5' biotin (strand 1).

In the case of “ACCTTATGGAAAGCATCGTAG (double strand) [21mer dsDNA]”, the Kd came to 1630 nM in series [1] and 6.2 nM in series [2].

The Kd is the constant that tells how readily two partners part at equilibrium.
